Results are given in words; binding and its absence hold for the method and conditions named. In cells and extracts the contact can be indirect. Some binding calls cover weakened binding; strength is not graded here.
Experiments:
[1] = molecular target: HA-tagged PEN2-2A (stably expressed in PEN2-/- MEFs) (UniProt Q9NZ42); experiment: co-IP; PEN2-/- MEFs infected with lentivirus expressing HA-tagged PEN2, PEN2-2A or PEN2-20A; cells treated with 200 μM metformin for 12 h; IP with anti-HA; immunoblot for PS1, PS2, NCSTN, APH1A/B/C
[2] = molecular target: HA-tagged PEN2 (stably expressed in MEFs) (UniProt Q9NZ42); experiment: as above

The chains behind the UniProt entries cited, without tags or fusion partners. Where a name states a change or a piece, a line headed by the entry shows the natural chain unless it says otherwise. A line that says so, or that is headed by a name, gives the form on record, which may keep a tag or linker.
UniProt Q9NZ42: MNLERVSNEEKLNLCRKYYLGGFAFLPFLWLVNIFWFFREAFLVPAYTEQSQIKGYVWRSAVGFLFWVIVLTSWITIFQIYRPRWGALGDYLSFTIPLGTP
HA-tagged PEN2-2A (stably expressed in PEN2-/- MEFs) (Q9NZ42, form named): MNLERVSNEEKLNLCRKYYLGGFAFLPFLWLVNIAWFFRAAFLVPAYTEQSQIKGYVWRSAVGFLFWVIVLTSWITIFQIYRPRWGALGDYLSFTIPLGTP

**Q.** “PS2 (presenilin 2; endogenous, MEFs) (from UniProt Q61144 1-448)” was tested. Which binding [1] did it give?
**A.** Its binding is “binds”.

**Q.** What about the binding [2] of the same substance?
**A.** The binding was “binds”.
